According to PubChem BioAssay (NCATS):
Inconclusive results, whose numbers are uncertain, are shown with a selection of clear calls. Where the call is inconclusive, the potency comes from a doubtful curve fit. Active and inactive are the calls of the source. Calls follow the shape of the dose curve; as a rule, active = well fitted cell-killing curve with a large enough effect; inconclusive = small, poorly fitted or top-dose-only effect, or effect the other way; inactive = no such curve, though single readings can be large or run the other way.

experiment: qHTS of pediatric cancer cell lines to identify multiple opportunities for drug repurposing: Confirmatory screen for Rh30 cells (AID 1347126); conditions: Rh30 rhabdomyosarcoma cell viability; series mostly up to 45.9 µM; activity change, negative = cytotoxic: at the top concentration; also: nearly all actives have a fitted effect of over 55% in size; as to activity change, negative = cytotoxic: % is scaled to controls: 0 for no effect and ±100 for the full control effect
How it was run: (§1)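 Viability after 48 h compound treatment at 37C, 500-1,000 cells/well, read as ATP luminescence with CellTiter-Glo. Primary screens used 11-point (MIPE, 0.78 nM-46 µM) or 8-point (NPC, 0.59 nM-46 µM) final concentrations; follow-up screens used 11-point dilutions.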
Potency is read from the fitted curve at half-maximal effect.

SMILES	Potency	activity change, negative = cytotoxic
CC(C)n1c(C=C[C@H](O)C[C@H](O)CC(=O)O)c(-c2ccc(F)cc2)c2ccccc21	inconclusive: 2.61 µM [cytotoxic, full curve]	
NC12CC3CC(CC(C3)C1)C2		inactive: 6.06%
O=C(O)CCC1CCC(c2cc(F)ccc2F)(S(=O)(=O)c2ccc(Cl)cc2)CC1 (stereo not given)	inconclusive: 36.9 µM [cytotoxic, single point]	
CC(C)n1nc(-c2ccc3oc(N)nc3c2)c2c(N)ncnc21	active: 0.293 µM	
CC1(C)S[C@H]2[C@H](NC(=O)[C@@H](N)c3ccc(O)cc3)C(=O)N2[C@@H]1C(=O)O		inactive: 5.93%
COc1cc(C(C)=O)ccc1OCCCN1CCC(c2noc3cc(F)ccc23)CC1	inconclusive: 32.9 µM [cytotoxic, single point]	
Cc1ccc(C(=O)N(CCCN)[C@@H](c2oc3cc(Cl)ccc3c(=O)c2Cc2ccccc2)C(C)C)cc1	active: 23.3 µM	
C[C@]1(c2nc3c(C(N)=O)cccc3[nH]2)CCCN1		inactive: 8.54%
CN(C)c1ccc(O)c2c1C[C@H]1C[C@H]3[C@H](N(C)C)C(=O)C(C(N)=O)=C(O)[C@@]3(O)C(=O)C1=C2O	inconclusive: 23.3 µM [cytotoxic, single point]	
CN(C)CC[C@H](CSc1ccccc1)Nc1ccc(S(=O)(=O)NC(=O)c2ccc(N3CCN(Cc4ccccc4-c4ccc(Cl)cc4)CC3)cc2)cc1[N+](=O)[O-]	inconclusive: 18.5 µM [cytotoxic, partial curve]	
COc1ccc(C(=O)CC(=O)c2ccc(C(C)(C)C)cc2)cc1		inactive: 20%
O=C1NC(=O)C(=Cc2ccc3c(c2)OC(F)(F)O3)S1		inactive: 3.71%
CCNC(=O)Nc1ccc2ncc(Nc3ccc(C)cc3)nc2n1		inactive: 4.48%
CC(=O)O[C@]1(C(C)=O)CC[C@@H]2[C@@H]3C[C@H](C)C4=CC(=O)CC[C@]4(C)[C@H]3CC[C@@]21C	inconclusive: 36.9 µM [cytotoxic, single point]	
CC1(C)C(=O)N(CCN2CCC(C(=O)c3ccc(F)cc3)CC2)c2ccccc21		inactive: 0%
CCCOc1ccc2nc(NC(=O)OC)[nH]c2c1	inconclusive: 18.5 µM [cytotoxic, single point]	
O=C1c2c(O)cc(O)cc2OC(c2ccc(O)c(O)c2)C1O (stereo not given)		inactive: 3.43%
Cc1c(C)n(Cc2ccc(-c3ccccc3C(=O)O)cc2)c2ccc(C(=O)N[C@@H](C)c3ccc([N+](=O)[O-])cc3)cc12		inactive: -0.276%
CO[C@H]1/C=C\O[C@@]2(C)Oc3c(C)c(O)c4c(O)c(c5c(nc6cc(C)ccn65)c4c3C2=O)NC(=O)C(C)=CC=C[C@H](C)[C@H](O)[C@@H](C)[C@@H](O)[C@@H](C)[C@H](OC(C)=O)[C@H]1C		inactive: 7.73%
Cc1ccc2c(c1)C(=O)[C@]1(O)CCN(c3ccccc3)C1=N2	inconclusive: 16.5 µM [cytotoxic, partial curve]	
O=C(O)c1ccc(-c2cc3cccnc3c(-c3ccc4nonc4c3)n2)cc1	inconclusive: 1.17 µM [cytotoxic, full curve]	
CC1(C)O[C@H]2C[C@@H]3[C@H]4CCC5=CC(=O)C=C[C@]5(C)[C@@]4(F)[C@@H](O)C[C@]3(C)[C@]2(C(=O)CO)O1		inactive: 2.46%
COc1cc([C@@H]2c3cc4c(cc3[C@H](O)[C@H]3COC(=O)[C@@H]23)OCO4)cc(OC)c1OC		inactive: 11.8%
CC[C@H](NC(=O)[C@H](C)NC)C(=O)N1C[C@@H](O)C[C@H]1Cc1c(-c2[nH]c3cc(F)ccc3c2C[C@H]2C[C@H](O)CN2C(=O)[C@H](CC)NC(=O)[C@H](C)NC)[nH]c2cc(F)ccc12		inactive: 13.6%

experiment: qHTS of pediatric cancer cell lines to identify multiple opportunities for drug repurposing: Confirmatory screen for Saos-2 cells (AID 1347127); conditions: Saos-2 osteosarcoma cell viability; series mostly up to 45.9 µM; activity change, negative = cytotoxic: at the top concentration; also: nearly all actives have a fitted effect of over 60% in size;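 as to activity change, negative = cytotoxic: plate controls were DMSO for no effect and bortezomib for full effect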
How it was run: as §1

SMILES	Potency	activity change, negative = cytotoxic
Cc1cn2c(-c3cn[nH]c3)cnc2c(Nc2ccc(C(=O)N3CCNCC3)cc2F)n1	inconclusive: 16.5 µM [cytotoxic, single point]	
CCOc1ccc(Nc2nc(-c3c(C)nc4ccccn34)cs2)cc1	inconclusive: 0.147 µM [cytotoxic, full curve]	
CC(C)n1c(C=C[C@H](O)C[C@H](O)CC(=O)O)c(-c2ccc(F)cc2)c2ccccc21	active: 1.04 µM	
CCN(CCO)CCCC(C)Nc1ccnc2cc(Cl)ccc12 (stereo not given)		inactive: 19.3%
CON(C)C(=O)N1N=C(c2cc(F)ccc2F)S[C@]1(CCCN)c1ccccc1	active: 0.0059 µM	
CO[C@H]1C[C@@H]2CC[C@@H](C)[C@@](O)(O2)C(=O)C(=O)N2CCCC[C@@H]2C(=O)O[C@H]([C@H](C)C[C@@H]2CC[C@H](OP(C)(C)=O)[C@H](OC)C2)CC(=O)[C@H](C)C=C(C)[C@@H](O)[C@@H](OC)C(=O)[C@H](C)C[C@H](C)C=CC=CC=C1C	inconclusive: 18.5 µM [cytotoxic, partial curve]	
CCC(C)n1ncn(-c2ccc(N3CCN(c4ccc(OC[C@H]5CO[C@](Cn6cncn6)(c6ccc(Cl)cc6Cl)O5)cc4)CC3)cc2)c1=O (stereo not given in full)		inactive: -1.48%
C[C@@]1(c2cc(-c3cncnc3)c(F)cc2F)CCSC(N)=N1	inconclusive: 29.3 µM [cytotoxic, single point]	
O=C1c2c(O)cc(O)cc2OC(c2ccc(O)c(O)c2)C1O (stereo not given)		inactive: 17.5%
CC1(C)CCC[C@@]2(C)[C@@H]1CC[C@@]1(C)OC(=O)C[C@H]21		inactive: 9.97%
Cc1ccc2c(c1)C(=O)[C@]1(O)CCN(c3ccccc3)C1=N2	inconclusive: 32.9 µM [cytotoxic, single point]	
CN[C@@H](C)C(=O)N[C@H]1CN(C(=O)CC(C)C)CC[C@H]2CC[C@@H](C(=O)NC(c3ccccc3)c3ccccc3)N2C1=O	inconclusive: 6.57 µM [cytotoxic, full curve]	
O=C(O)c1ccc(-c2cc3cccnc3c(-c3ccc4nonc4c3)n2)cc1	active: 5.22 µM	
CC1(C)O[C@H]2C[C@@H]3[C@H]4CCC5=CC(=O)C=C[C@]5(C)[C@@]4(F)[C@@H](O)C[C@]3(C)[C@]2(C(=O)CO)O1		inactive: 12.9%
CNC1CCC(N(Cc2cccc(-c3ccncc3)c2)C(=O)c2sc3c(F)ccc(F)c3c2Cl)CC1 (stereo not given)	inconclusive: 8.27 µM [rising, partial curve, poor fit]	
O=C(NC1CC1)c1cccc(-c2ccc3c(NC(=O)C4CC4)n[nH]c3c2)c1	inconclusive: 5.85 µM [cytotoxic, full curve]	
